Source: PubChem BioAssay AID2685 (National Center for Advancing Translational Sciences (NCATS), 2010)
The whole screen tested about 320,000 compounds, of which about 2,100 (0.66%) were called active. The inconclusive results got no clear call from the source; some entries with a clear call stand among them for comparison. The call rests on the fitted dose curve; in most records, active means well fitted inhibition curve with a large enough effect in the signal ratio, with a control signal flat (not every such curve was filed as active); inconclusive means small, poorly fitted or top-dose-only effect, or effect the other way, or a change in a side signal; inactive means flat fitted curve, though single readings scatter; the % refers to the signal ratio. Potencies beside an inconclusive call are fits to weak or partial responses and may not hold up.

Assay: qHTS Assay for Lipid Storage Modulators in Drosophila S3 Cells
Conditions: BODIPY lipid droplet fluorescence, 18-24 h, cells fed with added oleic acid; lipid storage change, negative = inhibition: at 46.1 µM (top of the series) unless noted
How it was run: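 Drosophila S3 cells got compounds at several concentrations plus oleic acid (400 uM solution). Laser-scanning cytometry with 488 nm excitation read lipid droplets at 500-530 nm and cells at 575-640 nm. Percent activity was relative to 20 uM Triacsin C.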
On the % scale 0 is the no-effect control and ±100 the full control effect; potency means the concentration at half of the fitted maximal effect.

Compound	lipid storage change, negative = inhibition	Potency
COc1ccc(C2(c3ccc(OC)cc3)NC(=O)N(CC(=O)Nc3ccc(N4CCOCC4)cc3)C2=O)cc1	inconclusive	–
CC(C)CC(C(=O)Nc1oc(-c2ccco2)c(-c2ccco2)c1C#N)N1C(=O)c2ccccc2C1=O (stereo not drawn)	inconclusive: 5.76%	–
C/C(N)=C(/C#N)C(=O)COC(=O)CNS(=O)(=O)c1ccc(C)cc1	–	inconclusive: 0.731 µM [falling, single point]
COC(=O)c1cc(NC(=O)/C=C/c2ccc3c(c2)OCO3)cc(C(=O)OC)c1	–	inconclusive: 11.6 µM [falling, partial curve, poor fit]
COC(=O)c1ccccc1-n1c(CCC(=O)O)ccc1-c1ccccc1	inconclusive: -31.8%	–
S=c1[nH]nc(-c2ccc(Cl)cc2)n1CC1CCCO1 (stereo not drawn)	inconclusive: 23.2%	–
O=C(O)Cc1ccc(NC(=S)Nc2ccc(Br)cc2Cl)cc1	inconclusive: 47.9%	–
CCOC(=O)c1cnc2ccc(OC)cc2c1Nc1ccc(N2CCN(C)CC2)cc1	–	inconclusive: 0.0291 µM [falling, full curve, poor fit]
Cc1sc(-c2ccccn2)nc1OC(=O)c1ccc(F)cc1F	inconclusive: -23.6%	–
CC(C)C1N=C(c2ccc3c(c2)OCO3)CC(c2ccccc2O)N1 (stereo not drawn)	–	inconclusive: 0.82 µM [activator, full curve]
CCOC(=O)C1=C(C)NC(C)=C(C(=O)OCC)C1/C=C/c1ccccc1	inconclusive: 24.5%	–
COc1ccc(Nc2nc(-c3ccc(OC)cc3)c(CCC(=O)O)s2)cc1	inconclusive: 37.5%	–
CCOCCCNCC(=O)NC1(C)C2CCC(C2)C1(C)C (stereo not drawn)	–	active: 1.3 µM
Cc1cc(NC(=O)CCC(=O)N(c2ccc(F)cc2)C(C(=O)NC2CCCC2)c2ccccc2)no1 (stereo not drawn)	inconclusive: 323%	–
CC(NC(=O)C1CCN(S(=O)(=O)c2cccc3cccnc23)CC1)c1ccccc1 (stereo not drawn)	inconclusive: -15.3%	–
O=C(O)CNC(=S)N(Cc1ccccc1)Cc1cccs1	inconclusive: -8.06%	–
O=S(=O)(c1ccccc1)N1CCN(C(=S)Nc2ccc(Br)cc2)CC1	inconclusive: -29.1%	–
O=C(COC(=O)c1cc(Br)ccc1O)Nc1cccnc1Cl	inconclusive	–
COc1ccccc1N1CCN(C(=O)Cn2nnc(-c3ccncc3)n2)CC1	inconclusive: 19.3%	–
O=C(Nc1ccc(S(=O)(=O)N2CCCCC2c2cccnc2)cc1)c1c(F)cccc1F (stereo not drawn)	inconclusive: 2.74%	–
O=C(Cc1cccc2ccccc12)Nc1ccc(OC(F)F)c(Cl)c1	inconclusive: -30.6%	–
FC(F)(F)c1cnc(Oc2cccc3ccccc23)c(Cl)c1	inconclusive: 18.7%	–
COCCN(C(=O)CCC(=O)Nc1nccs1)C(C(=O)NCCC(C)C)c1ccc(OC)cc1 (stereo not drawn)	–	inconclusive: 6.51 µM [falling, single point]
CCOc1ccc(C(CC(=O)O)NC(=O)C23CC4CC(CC(C4)C2)C3)cc1OC (stereo not drawn)	inconclusive: -5.73%	–
Cc1nc2ccccn2c1C(=O)NNC(=S)Nc1ccc(Cl)cc1	inconclusive: 17.9%	–
Cc1ccc(-c2cc(=O)[nH][nH]2)c(C)c1	inconclusive: -37.2%	–

Compound	lipid storage change, negative = inhibition	Potency
CCn1c(SCC(=O)Nc2ccccc2-c2ccccc2)nnc1-c1ccoc1C	–	inconclusive: 0.146 µM [falling, full curve, poor fit]
CCn1ccnc1C(O)c1cccc(OC)c1 (stereo not drawn)	–	inconclusive: 1.16 µM [falling, full curve]
Cc1cccc(NC(=O)CN2CCN(C(=O)c3ccc(-c4nc5ccccc5s4)o3)CC2)c1C	inconclusive: 1.76%	–
COc1cc(-c2noc(C)c2-c2ccc3[nH]ccc3c2)cc(OC)c1OC	inconclusive: 381%	–
O=c1[nH]c2ccc(NS(=O)(=O)c3ccc(Cl)cc3)cc2[nH]1	inconclusive: 46.3%	–
COc1ccc(C(=O)Nc2ccc(S(=O)(=O)NC(C)=O)cc2)cc1	–	inconclusive: 20.6 µM [falling, single point]
Cc1ccc(C(=O)COC(=O)C(C)N2C(=O)C3C4C=CC(C4)C3C2=O)cc1 (stereo not drawn)	–	inconclusive: 14.6 µM [activator, single point]
CN1CCN(C(=O)/C(=C/c2ccccc2F)NC(=O)c2ccccc2)CC1	inconclusive: 87.5%	–
COc1ccc(S(=O)(=O)N2CC=C(C(=O)NC3CCCC3)CC2)cc1	–	inconclusive: 6.51 µM [falling, single point]
Cc1ccc(C2C(C#N)=C(N)Oc3nc(-c4ccccc4)[nH]c32)o1 (stereo not drawn)	–	inconclusive: 13 µM [activator, single point]
COc1ccc(S(=O)(=O)N2CCC(C(=O)Nc3nnc(C)s3)CC2)cc1OC	inconclusive: 13.6%	–
COc1ccc2[nH]c3c(N4CC(C)OC(C)C4)ncnc3c2c1 (stereo not drawn)	–	inconclusive: 4.61 µM [rising, partial curve]
CNc1nc(-c2ccc(S(=O)(=O)N3CCCCC3)cc2)cs1	inconclusive: 14.3%	–
CCOC(=O)C1=C(C)SC2=NS(=O)(=O)CCN21	inconclusive: -7.53%	–
Cc1ccc(NC(=O)COC(=O)c2ccc3c(c2)NC(=O)C2CCCN32)cc1 (stereo not drawn)	–	inconclusive: 2.06 µM [activator, partial curve]
COc1cccc(NC(=O)CCP(C)(=O)O)c1	inconclusive: -60.7%	–
CCCCNS(=O)(=O)c1ccc2nc(-c3cccnc3)cc(C(=O)NC(C)CC)c2c1 (stereo not drawn)	inconclusive: 8.38%	–
NCCCC(=O)N1c2ccccc2Sc2ccc(Cl)cc21	inconclusive: -19.4%	–
O=C(O)C1C2C=CC(C2)C1C(=O)N1CCOCC1 (stereo not drawn)	–	inconclusive: 23.1 µM [falling, single point]
CCN(CC)S(=O)(=O)c1cc(NC(=O)c2ccc(-n3cncn3)c([N+](=O)[O-])c2)ccc1C	–	inconclusive: 8.2 µM [falling, partial curve]
O=C1C2C(C(=O)N1CCN1CCN(Cc3ccc([N+](=O)[O-])cc3)CC1)[C@H]1C=C[C@@H]2C1 (stereo partly drawn)	inconclusive: 13.7%	–
CN(C)/C=C(/C(=O)c1ccc(Cl)c(Cl)c1)S(C)(=O)=O	inconclusive: -35%	–
CC1(C)Cc2cccc(OCC(=O)N3CCN(c4ccccc4F)CC3)c2O1	inconclusive	–
COc1ccccc1C(=O)NCCC(=O)NCC(c1ccccc1)N(C)C (stereo not drawn)	–	inconclusive: 29.1 µM [rising, single point]
Cc1ccccc1NC(=O)Cc1nc(COC(=O)c2cccnc2Cl)cs1	–	inconclusive: 29.1 µM [falling, single point]
Nc1ccc(S(=O)(=O)c2ccccc2)nc1	inconclusive: 8.57%	–

Looked up by compound from above:
Compound	lipid storage change, negative = inhibition	Potency
Cc1ccccc1NC(=O)Cc1nc(COC(=O)c2cccnc2Cl)cs1	–	inconclusive: 29.1 µM [falling, single point]
CCCCNS(=O)(=O)c1ccc2nc(-c3cccnc3)cc(C(=O)NC(C)CC)c2c1 (stereo not drawn)	inconclusive: 8.38%	–

Later entries:

Compound	lipid storage change, negative = inhibition	Potency
COc1cc(S(C)=O)ccc1-c1nc2ncccc2[nH]1 (stereo not drawn)	inconclusive: 12.8%	–
CCCn1c(O)c(N=N)c2ccccc21	inconclusive: 6.39%	–
O=C1OC(C(=O)Nc2nccs2)Cc2ccccc21 (stereo not drawn)	inactive	–
COc1c2ccoc2c(OC)c2oc(=O)ccc12	inconclusive: 17.9%	–
CC(=O)Nc1ccc(S(=O)(=O)N2CCSC2)cc1	–	inconclusive: 5.17 µM [activator, full curve]
Cc1cccc(-n2c(-c3ccco3)nc3nc4ccccc4nc32)c1	inconclusive: 6.56%	–
CCOC(=O)C(NC(=O)CC(C)C)(Nc1cc(C)on1)C(F)(F)F (stereo not drawn)	inconclusive: -7.09%	–
COc1ccc(-c2nncnn2)cc1	inconclusive: -28.3%	–
CCOc1cc2[nH]c(=S)n(CCCC(=O)NCc3ccco3)c(=O)c2cc1OCC	–	inconclusive: 29.1 µM [falling, single point]
CC(C)(C)NC(=O)Cn1cnc2cc([N+](=O)[O-])ccc2c1=O	inconclusive: -0.568%	–
C[C@@H]([C@H](O)c1ccccc1)N(C)C(=S)Nc1ccccc1	–	inconclusive: 23.1 µM [falling, single point]
COc1ccc(C2=[N+]([O-])C(C)(C)N(O)C2(C)C)cc1	inconclusive: -21.8%	–
COc1ccccc1CN1C(=O)c2ccccc2C1C(=O)NC1CCC(C)CC1 (stereo not drawn)	inconclusive: -0.148%	–
CC1(C)CNC(=O)c2sc(NC(=O)c3ccccc3)nc2C1	–	inconclusive: 25.9 µM [activator, single point]
NN/C(=C\[N+](=O)[O-])Nc1ccccc1	–	inconclusive: 29.1 µM [rising, single point]
COc1ccc(F)cc1S(=O)(=O)N1CCN(c2ccccn2)CC1	inconclusive: 1.28%	–
CCN1CC(CN(C)Cc2nc(-c3ccco3)oc2C)CC1=O (stereo not drawn)	inconclusive: 16.2%	–
O=C(NCCc1ccccc1)C1CCCN1C(=O)Nc1cccc(Cl)c1 (stereo not drawn)	inconclusive: -52.1%	–
CCOC(=O)c1ccccc1NC(=O)COC(=O)CCC1CCCC1	–	inconclusive: 29.1 µM [activator, single point]
COc1cccc(C=N[C@@H](CO)[C@@H](O)c2ccc([N+](=O)[O-])cc2)c1O	inconclusive: -22%	–
O=C(CCCc1nc2ccccc2s1)N1CCN(c2ccccc2F)CC1	inactive	–
CCOc1c(C)cnc2c1c(=O)n(Cc1c(F)cccc1Cl)c(=O)n2C	–	inconclusive: 29.1 µM [activator, single point]
Cc1ccccc1OCCC(=O)Nc1ccc(S(=O)(=O)N(C)C2CCN(C)CC2)cc1	inconclusive: 6.39%	–
CC(Sc1nnc2c(n1)[nH]c1ccccc12)C(=O)NC1CCCCC1 (stereo not drawn)	–	inconclusive: 1.16 µM [activator, partial curve, poor fit]
Cn1c(=O)n(CCc2ccccc2)c2ccccc21	inconclusive: 54.5%	–
Cc1nc2ccccc2c(C)c1C(=O)c1ccccc1	inconclusive: 39.1%	–
